# Measured values from PubChem BioAssay AID493014 (National Center for Advancing Translational Sciences (NCATS), 2011).
# The list shows a part of the results. Shown are side measurements of this screen, not its main read-out; they come without a call. The list favours compounds with an active or inconclusive main result. Words in brackets tell the shape of the fitted curve; partial curves, single points and poor fits give uncertain potencies.
# Assay: qHTS Assay to Find Inhibitors of Chronic Active B-Cell Receptor Signaling
# Details: ABC-DLBCL IkBa-CBG/CBR reporter, luminescence ratio (green luciferase fused to IkBa over red control in TMD8 lymphoma cells), 4 h
# Outline: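 TMD8 ABC-DLBCL cells carrying doxycycline-inducible green luciferase fused to IkappaBalpha plus unfused red luciferase were exposed to compounds (up to 46 uM) for 4 hrs at 37C. Activity came from the overlap-corrected green/red luminescence ratio.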
# [1] = measured here: CBR red luminescence, cell number
SMILES,AC50 [1],AC50 (measured here: IkBa-CBG green luminescence)
CCCCn1c2ccc(F)cc2c2nnc(SCCN3CCOCC3)nc21,"35.5 µM [falling, single point]",
CN(CCCNC(=O)c1cn(C)c2ccc(S(=O)(=O)N(C)C)cc2c1=O)c1ccccc1,"20.6 µM [rising, single point]",
O=C(NC1CCCCC1)Oc1ccccc1,"35.5 µM [falling, partial curve, poor fit]",
CCN(Cc1ccccc1)c1ccc(N=Nc2nn(C)c(C)c2[N+](=O)[O-])cc1,"29.1 µM [rising, partial curve, poor fit]",
CN(C)CCCN1c2ccccc2Sc2ccccc21,"35.5 µM [falling, partial curve, poor fit]",
N#CCc1nc(CSc2nc3ccccc3s2)cs1,"3.26 µM [rising, full curve, poor fit]",
O=C(Nc1ccc(Nc2ccccc2)cc1)c1c(F)c(F)c(F)c(F)c1F,"1.12 µM [falling, full curve]",
CCOC(=O)C1=C(O)C(=O)NC(c2ccccc2)=C(OCC)C1,"23.1 µM [falling, single point]",
COc1cc2ccccc2cc1C(=O)N(CCN(C)C)c1nc2c(F)cccc2s1,"22.4 µM [falling, single point]",
Cc1cc(N/N=C/c2cccc(Cl)c2)nc(NCc2ccccc2)n1,"14.6 µM [rising, single point]",
O=C(OCC(=O)N1CCCC1=O)c1cc(S(=O)(=O)N2CCOCC2)ccc1F,"25.9 µM [falling, single point]",
O=C(NCc1ccccc1C(F)(F)F)C1CC(c2cccc(F)c2)=NO1 (centres undefined),"3.16 µM [falling, full curve]",
COc1ccc(N2CCN(C(=O)c3cn(Cc4ccccc4)nc3-c3cccnc3)CC2)cc1,"6.51 µM [rising, full curve, poor fit]",
O=C(NCCc1cccc(Cl)c1)c1ccc2c(c1)OCO2,"12.6 µM [falling, single point]",
COc1cccc(NS(=O)(=O)c2ccc(OC)c(OC)c2)c1,"17.8 µM [rising, single point]",
COc1ccc(C(F)(F)F)cc1N/C=C/c1nnnn1-c1ccc2ccccc2c1,"12.6 µM [rising, single point]",
Cc1cccc(NC(=S)N=Nc2c(O)[nH]c3ccccc23)c1,"29.1 µM [falling, single point]","5.8 µM [falling, single point]"
CSc1nc2sc3c(c2c(=O)n1-c1ccccc1C)CCCC3,"35.5 µM [rising, single point]",

# In another format: two of the compounds above.
SMILES | AC50 [1] | AC50 (measured here: IkBa-CBG green luminescence)
O=C(OCC(=O)N1CCCC1=O)c1cc(S(=O)(=O)N2CCOCC2)ccc1F | 25.9 µM [falling, single point] | 
O=C(NCc1ccccc1C(F)(F)F)C1CC(c2cccc(F)c2)=NO1 (centres undefined) | 3.16 µM [falling, full curve] | 
